Results are given in words; binding and its absence hold for the method and conditions named. Binding seen in cells or lysates may run through a third protein. Some binding calls cover weakened binding; strength is not graded here.

Chains of the proteins cited; added tags and fusions are not shown.
UniProt Q15059: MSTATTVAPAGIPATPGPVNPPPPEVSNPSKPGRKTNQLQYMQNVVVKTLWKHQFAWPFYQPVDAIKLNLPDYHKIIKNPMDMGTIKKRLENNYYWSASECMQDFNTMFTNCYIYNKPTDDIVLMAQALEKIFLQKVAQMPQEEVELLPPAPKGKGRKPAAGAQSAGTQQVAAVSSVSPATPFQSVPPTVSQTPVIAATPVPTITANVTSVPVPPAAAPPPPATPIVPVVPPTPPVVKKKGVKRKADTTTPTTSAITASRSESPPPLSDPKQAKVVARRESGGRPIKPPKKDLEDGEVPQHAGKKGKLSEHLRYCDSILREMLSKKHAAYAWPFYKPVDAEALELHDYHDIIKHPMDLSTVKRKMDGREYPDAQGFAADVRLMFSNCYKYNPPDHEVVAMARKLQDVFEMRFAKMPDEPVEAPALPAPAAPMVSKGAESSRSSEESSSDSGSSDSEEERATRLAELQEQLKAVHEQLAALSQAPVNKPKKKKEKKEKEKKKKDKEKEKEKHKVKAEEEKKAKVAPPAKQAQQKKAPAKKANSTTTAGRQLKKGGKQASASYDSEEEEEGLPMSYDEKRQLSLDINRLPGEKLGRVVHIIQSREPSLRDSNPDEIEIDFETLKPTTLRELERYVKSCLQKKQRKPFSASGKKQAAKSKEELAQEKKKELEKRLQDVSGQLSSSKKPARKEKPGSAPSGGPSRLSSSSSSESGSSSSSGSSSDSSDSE
UniProt P25440: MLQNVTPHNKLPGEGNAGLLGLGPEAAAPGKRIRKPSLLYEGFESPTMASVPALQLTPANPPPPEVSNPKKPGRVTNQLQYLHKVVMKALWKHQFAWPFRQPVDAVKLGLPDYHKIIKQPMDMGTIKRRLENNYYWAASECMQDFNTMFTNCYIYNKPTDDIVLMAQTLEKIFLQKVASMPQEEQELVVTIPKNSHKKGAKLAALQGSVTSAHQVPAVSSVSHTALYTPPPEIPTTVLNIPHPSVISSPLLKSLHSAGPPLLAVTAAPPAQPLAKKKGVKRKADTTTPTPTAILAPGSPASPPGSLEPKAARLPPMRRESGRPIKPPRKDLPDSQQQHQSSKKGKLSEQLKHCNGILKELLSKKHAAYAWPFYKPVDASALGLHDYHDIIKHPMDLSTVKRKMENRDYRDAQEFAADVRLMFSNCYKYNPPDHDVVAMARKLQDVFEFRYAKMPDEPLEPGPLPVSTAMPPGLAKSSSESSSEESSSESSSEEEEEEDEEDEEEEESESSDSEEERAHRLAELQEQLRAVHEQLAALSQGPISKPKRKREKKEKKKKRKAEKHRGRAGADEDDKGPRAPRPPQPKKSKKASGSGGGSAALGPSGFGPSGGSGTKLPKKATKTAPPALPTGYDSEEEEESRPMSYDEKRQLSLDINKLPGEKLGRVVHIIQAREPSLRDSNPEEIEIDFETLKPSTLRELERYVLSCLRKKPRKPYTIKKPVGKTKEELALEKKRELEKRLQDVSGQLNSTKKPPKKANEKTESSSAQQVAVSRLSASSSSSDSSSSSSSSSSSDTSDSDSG
UniProt P49848: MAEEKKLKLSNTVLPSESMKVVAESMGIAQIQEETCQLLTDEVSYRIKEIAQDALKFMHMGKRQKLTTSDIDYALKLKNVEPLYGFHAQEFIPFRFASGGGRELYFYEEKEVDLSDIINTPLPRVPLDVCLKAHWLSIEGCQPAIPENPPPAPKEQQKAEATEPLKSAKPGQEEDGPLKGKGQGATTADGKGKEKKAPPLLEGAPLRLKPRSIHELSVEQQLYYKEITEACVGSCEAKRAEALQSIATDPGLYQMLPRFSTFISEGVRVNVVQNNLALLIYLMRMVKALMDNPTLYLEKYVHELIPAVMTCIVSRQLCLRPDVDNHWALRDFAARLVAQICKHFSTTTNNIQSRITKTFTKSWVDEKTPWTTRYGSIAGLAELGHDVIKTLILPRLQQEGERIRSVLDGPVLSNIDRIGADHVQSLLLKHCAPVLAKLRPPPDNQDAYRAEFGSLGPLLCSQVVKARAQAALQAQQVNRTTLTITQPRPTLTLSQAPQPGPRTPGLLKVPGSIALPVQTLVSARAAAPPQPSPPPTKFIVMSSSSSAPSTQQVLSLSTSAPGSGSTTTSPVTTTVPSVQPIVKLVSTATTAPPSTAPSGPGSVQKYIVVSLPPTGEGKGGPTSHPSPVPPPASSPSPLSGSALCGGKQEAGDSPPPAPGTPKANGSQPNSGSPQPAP
UniProt P21675: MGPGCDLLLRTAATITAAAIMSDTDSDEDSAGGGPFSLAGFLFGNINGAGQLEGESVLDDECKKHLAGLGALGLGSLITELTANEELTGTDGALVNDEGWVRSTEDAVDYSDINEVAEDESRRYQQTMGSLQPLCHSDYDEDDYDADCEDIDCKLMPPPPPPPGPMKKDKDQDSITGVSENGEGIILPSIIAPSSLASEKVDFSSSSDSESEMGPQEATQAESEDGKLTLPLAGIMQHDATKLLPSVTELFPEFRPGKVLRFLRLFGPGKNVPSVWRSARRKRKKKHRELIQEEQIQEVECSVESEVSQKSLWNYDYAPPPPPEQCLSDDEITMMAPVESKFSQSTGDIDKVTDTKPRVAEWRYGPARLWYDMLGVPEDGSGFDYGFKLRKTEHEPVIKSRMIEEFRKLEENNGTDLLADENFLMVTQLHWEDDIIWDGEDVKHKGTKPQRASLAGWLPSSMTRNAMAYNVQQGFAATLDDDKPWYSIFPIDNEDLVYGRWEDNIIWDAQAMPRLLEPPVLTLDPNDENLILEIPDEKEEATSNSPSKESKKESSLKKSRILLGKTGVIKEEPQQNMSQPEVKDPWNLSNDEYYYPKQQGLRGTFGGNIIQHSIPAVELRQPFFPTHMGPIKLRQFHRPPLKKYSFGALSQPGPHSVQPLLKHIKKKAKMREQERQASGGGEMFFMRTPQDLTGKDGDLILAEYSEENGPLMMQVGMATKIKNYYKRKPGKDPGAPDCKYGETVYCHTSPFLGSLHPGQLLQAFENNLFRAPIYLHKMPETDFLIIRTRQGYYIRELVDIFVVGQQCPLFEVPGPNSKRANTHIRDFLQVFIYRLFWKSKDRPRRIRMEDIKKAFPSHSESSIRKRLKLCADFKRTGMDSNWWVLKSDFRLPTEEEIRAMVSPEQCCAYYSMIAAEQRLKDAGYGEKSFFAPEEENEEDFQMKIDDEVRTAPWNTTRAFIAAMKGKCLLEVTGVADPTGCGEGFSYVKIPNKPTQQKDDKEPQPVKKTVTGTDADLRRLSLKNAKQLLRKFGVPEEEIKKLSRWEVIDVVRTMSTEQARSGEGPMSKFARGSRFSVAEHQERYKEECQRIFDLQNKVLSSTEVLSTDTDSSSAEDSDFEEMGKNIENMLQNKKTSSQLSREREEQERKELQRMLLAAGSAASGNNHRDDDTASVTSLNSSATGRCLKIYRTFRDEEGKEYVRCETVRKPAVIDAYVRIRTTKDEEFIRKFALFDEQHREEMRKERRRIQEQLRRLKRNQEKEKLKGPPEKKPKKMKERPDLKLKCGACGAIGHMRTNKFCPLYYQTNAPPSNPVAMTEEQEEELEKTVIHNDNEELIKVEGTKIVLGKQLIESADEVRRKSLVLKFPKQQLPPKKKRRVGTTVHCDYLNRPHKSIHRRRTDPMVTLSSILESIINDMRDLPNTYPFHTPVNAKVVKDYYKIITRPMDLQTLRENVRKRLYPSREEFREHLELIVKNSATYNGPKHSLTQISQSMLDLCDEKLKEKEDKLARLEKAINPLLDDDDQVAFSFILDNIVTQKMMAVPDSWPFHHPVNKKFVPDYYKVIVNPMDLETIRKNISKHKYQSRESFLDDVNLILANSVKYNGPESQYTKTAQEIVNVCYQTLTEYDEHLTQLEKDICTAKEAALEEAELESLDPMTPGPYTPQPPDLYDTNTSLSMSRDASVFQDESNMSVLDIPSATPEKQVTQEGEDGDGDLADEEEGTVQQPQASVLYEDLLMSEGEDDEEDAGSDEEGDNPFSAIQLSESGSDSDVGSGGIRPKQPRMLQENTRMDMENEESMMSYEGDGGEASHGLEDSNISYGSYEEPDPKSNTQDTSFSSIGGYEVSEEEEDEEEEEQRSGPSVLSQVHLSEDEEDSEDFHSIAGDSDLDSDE
UniProt P20226: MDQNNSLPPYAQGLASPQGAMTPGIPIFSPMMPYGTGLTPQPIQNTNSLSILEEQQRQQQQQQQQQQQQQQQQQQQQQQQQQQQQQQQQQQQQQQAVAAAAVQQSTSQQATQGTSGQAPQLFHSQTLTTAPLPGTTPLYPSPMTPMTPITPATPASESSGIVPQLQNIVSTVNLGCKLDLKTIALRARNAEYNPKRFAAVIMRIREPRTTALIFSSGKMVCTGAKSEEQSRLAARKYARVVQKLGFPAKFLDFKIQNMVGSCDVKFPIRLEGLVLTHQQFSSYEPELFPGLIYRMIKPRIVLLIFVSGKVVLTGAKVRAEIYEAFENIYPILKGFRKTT

Experiment in all cases: co-IP
In experiment [1] the target is GFP-tagged BRD3 (full-length) (UniProt Q15059).
The target in experiment [2] is GFP-tagged and nuclear-localized full length BRD2 (GFP-BRD2FL) (UniProt P25440).
The target of experiment [3] is endogenous, V5-tagged BRD2 of the BRD2-IAA7 degron line (E2) (human (endogenous in DLD-1)) (UniProt P25440).

For the substance “TAF6 (TFIID subunit) (from UniProt P49848 1-677)”, the binding entry in experiment [1] and in experiment [2] was “binds” in each case.

“TAF1 (TFIID subunit) (from UniProt P21675 1-1893)”: the binding entry in experiment [3], in experiment [1] and in experiment [2] was “binds” each time.

For the substance “TBP (TFIID subunit) (from UniProt P20226 1-339)”, the binding entry in experiment [3], in experiment [1] and in experiment [2] was “binds” in each case.

Values taken from publication doi:10.1101/2025.09.20.676678.
